# In the supplement of paper PMC4604168 (melanoma cell lines):
# The list shows a part of the results. Repeats are few or missing, and single values can be far off.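 Cells were imaged in 1,536-well plates, and nuclei stained with an antibody against cleaved PARP were counted against all DNA-stained nuclei to give the apoptosis fraction. Screening doses were chosen to leave most cells alive, and resting and induced cleaved-PARP levels differ strongly between cell lines.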
# Test system: CBRC017 (line from a melanoma biopsy)
# Experiment: cleaved PARP positive nuclei fraction relative to DMSO control; melanoma cells; higher = more apoptosis
# Details: library dose: low library concentration; 72 h
row,Structure (SMILES),cleaved PARP positive nuclei fraction [%]
1,"Cn1c(Nc2ccc(C(F)(F)F)cc2)nc2cc(Oc3ccnc(-c4ncc(C(F)(F)F)[nH]4)c3)ccc21 + O=C(Oc1ccc([N+](=O)[O-])cc1)N1CCC(C(O)(c2ccc3c(c2)OCO3)c2ccc3c(c2)OCO3)CC1 [JZL184] (first compound 0.08 µM, partner dose 1 µM)",138
2,"C/C(O)=C(\C#N)C(=O)Nc1cc(Br)ccc1Br + COc1cc(N2CCC(N3CCN(C)CC3)CC2)ccc1Nc1ncc(Cl)c(Nc2ccccc2S(=O)(=O)C(C)C)n1 [NVP-TAE684] (first compound 2 µM, partner dose 0.08 µM)",153
3,"Cc1cc(SCc2sc(-c3ccc(C(F)(F)F)c(F)c3)nc2C)ccc1OCC(=O)O + Cc1cc([N+](=O)[O-])ccc1NS(=O)(=O)c1cc(Cl)ccc1Cl [FH535] (first compound 2 µM, partner dose 1 µM)",121
4,"C[As](C)SC[C@H](NC(=O)CC[C@H](N)C(=O)O)C(=O)NCC(=O)O [Darinaparsin] + O=S(=O)(c1ccccc1)N(CC(F)(F)F)c1ccc(C(O)(C(F)(F)F)C(F)(F)F)cc1 [T0901317] (first compound 0.4 µM, partner dose 1.4 µM)",90.4
5,"Cc1cc(SCc2sc(-c3ccc(C(F)(F)F)c(F)c3)nc2C)ccc1OCC(=O)O + Oc1nc(-c2ccc(C(F)(F)F)cc2)nc2c1CSCC2 [XAV939] (first compound 2 µM, partner dose 2 µM)",84.3
6,"CCc1ccc(CCOc2ccc(CC3SC(=O)NC3=O)cc2)nc1 (stereo not given) [pioglitazone] + Cc1cc(SCc2sc(-c3ccc(C(F)(F)F)c(F)c3)nc2C)ccc1OCC(=O)O [GW0742] (first compound 2 µM, partner dose 2 µM)",84.5
7,"Cc1cc(N2CCOCC2)cc2[nH]c(-c3c(NC[C@@H](O)c4cccc(Cl)c4)cc[nH]c3=O)nc12 + O=C(Oc1ccc([N+](=O)[O-])cc1)N1CCC(C(O)(c2ccc3c(c2)OCO3)c2ccc3c(c2)OCO3)CC1 [JZL184] (first compound 0.2 µM, partner dose 1 µM)",81.3
8,"C[As](C)SC[C@H](NC(=O)CC[C@H](N)C(=O)O)C(=O)NCC(=O)O [Darinaparsin] + O=C(Oc1ccc([N+](=O)[O-])cc1)N1CCC(C(O)(c2ccc3c(c2)OCO3)c2ccc3c(c2)OCO3)CC1 [JZL184] (first compound 0.4 µM, partner dose 1 µM)",84.5
9,"Cc1cc(SCc2sc(-c3ccc(C(F)(F)F)c(F)c3)nc2C)ccc1OCC(=O)O + c1cc(-c2cnn3cc(-c4ccc(OCCN5CCCCC5)cc4)cnc23)ccn1 [Dorsomorphin] (first compound 2 µM, partner dose 0.4 µM)",86.4
10,"C#Cc1cccc(Nc2ncnc3cc(OCCOC)c(OCCOC)cc23)c1 [erlotinib] + C/C(O)=C(\C#N)C(=O)Nc1cc(Br)ccc1Br [LFM-A13] (first compound 0.8 µM, partner dose 2 µM)",113
11,"C/C(O)=C(\C#N)C(=O)Nc1cc(Br)ccc1Br + O=c1cc(-c2cccc3c2Sc2ccccc2S3)oc(N2CCOCC2)c1 [KU55933] (first compound 2 µM, partner dose 1 µM)",83
12,"Cc1cc(SCc2sc(-c3ccc(C(F)(F)F)c(F)c3)nc2C)ccc1OCC(=O)O + Oc1cc(-c2nc(-c3ccccc3)[nH]c2-c2ccncc2)ccc1Cl [L779450] (first compound 2 µM, partner dose 0.2 µM)",79.9
13,"O=C(Nc1cccc(Cl)c1)Nc1ncc(CCNc2ncnc3ccsc23)s1 + O=C(Oc1ccc([N+](=O)[O-])cc1)N1CCC(C(O)(c2ccc3c(c2)OCO3)c2ccc3c(c2)OCO3)CC1 [JZL184] (first compound 0.0008 µM, partner dose 1 µM)",63.5
14,"COc1ccc(-c2ccc3c(N4CCOCC4)nc(N4C[C@@H](C)O[C@@H](C)C4)nc3n2)cc1CO + O=C(Oc1ccc([N+](=O)[O-])cc1)N1CCC(C(O)(c2ccc3c(c2)OCO3)c2ccc3c(c2)OCO3)CC1 [JZL184] (first compound 0.02 µM, partner dose 1 µM)",82.6
15,"Cc1nc(Nc2ncc(C(=O)Nc3c(C)cccc3Cl)s2)cc(N2CCN(CCO)CC2)n1 [dasatanib] + C/C(O)=C(\C#N)C(=O)Nc1cc(Br)ccc1Br [LFM-A13] (first compound 0.004 µM, partner dose 2 µM)",84.1

# Quoted from the listing.
# cleaved PARP positive nuclei fraction [%] with Cc1cc(SCc2sc(-c3ccc(C(F)(F)F)c(F)c3)nc2C)ccc1OCC(=O)O + Oc1cc(-c2nc(-c3ccccc3)[nH]c2-c2ccncc2)ccc1Cl [L779450] (first compound 2 µM, partner dose 0.2 µM) is entered as 79.9
# cleaved PARP positive nuclei fraction [%] with Cc1cc(SCc2sc(-c3ccc(C(F)(F)F)c(F)c3)nc2C)ccc1OCC(=O)O + c1cc(-c2cnn3cc(-c4ccc(OCCN5CCCCC5)cc4)cnc23)ccn1 [Dorsomorphin] (first compound 2 µM, partner dose 0.4 µM) is entered as 86.4
